We go through 40 compounds from PubChem BioAssay (NCATS).

“And” between values parts separate entries of the source, which are not always exact repeats. Identical values can stand only once. Some of the results follow. Shown are side measurements of this screen, not its main read-out; they come without a call. Most of these compounds were active or inconclusive in the main read-out, so they are no random draw. The note in brackets gives the kind of curve behind each potency; many fits are weak.

This assay can be described thus: qHTS Assay for Inhibitors of PDE-IV (AID 607). Conditions: HEK293 ACTOne CNG channel cells, membrane potential fluorescence; measured here: parental cell counter-screen. An excerpt:
NIH Chemical Genomics Center [NCGC]
NIH Molecular Libraries Screening Centers Network [MLSCN]
The cyclic nucleotide phosphodiesterases (PDEs) are proteins that catalyze hydrolysis of 3', 5'-cyclic nucleotides, such as cyclic adenosine monophosphate (cAMP) and cyclic guanosine monophosphate (cGMP), to their corresponding 5'-nucleotide monophosphates. These enzymes play an important role in controlling cellular concentrations of cyclic nucleotides and have a central role in a variety of intracellular signaling events. cAMP PDEs are emerging as a promising class of drug targets in asthma and cardiovascular disease therapeutic areas.
There are no commercially available cell-based screening assays for PDE inhibitors: currently biochemical assays are done using pure substrates (cAMP or cGMP) and purified recombinant PDE enzymes. As with other biochemical screens on intracellular targets, false positives and false negatives may result from issues involving cell membrane permeability, cellular metabolism, and the like.
Here we report the development of a cell-based screening assay for cAMP phosphodiesterase (PDE) inhibitors. The assay is based on the BD ACTOne# technology (BD Biosciences) which utilizes a modified cyclic nucleotide-gated channel (CNG) to monitor intracellular cAMP changes in live cells. The CNG channel is localized on the plasma membrane, and opens when the intracellular cAMP level increases, resulting in ion flux and cell membrane depolarization. The influx of cations through the CNG channel can be quantified using membrane potential (MP) dyes. We modified the BD ACTOne technology to allow the detection of PDE inhibitors, and performed an inhibitor screen for PDE-IV, which is expressed endogenously in HEK293 cells. We optimized this assay in homogeneous 1536-well plate assay format for high throughput screening.
NCGC Assay Protocol Summary:
The medium contained 10% FBS (Invitrogen), 2 mM L-glutamine, and 250 ug/ml G418 (Cellgro) and 1 ug/ml puromycin (Clontech). ACTOneTM parental cells (BD Biosciences) were maintained in the same medium without puromycin.
The activity of the CNG channel was measured by BD ACTOneTM membrane potential dye kit (BD Biosciences). Forskolin, a positive control for cAMP activation and RO 20-1724, a PDE inhibitor, were both purchased from Sigma and solublized in DMSO.
Sequence,Parameter,Value,Description
1,Reagent,3 uL,1000 cells/well 1536 TC treated Black plate
3,Compound,0.5 uL,Kalypsys dispense RO 20-1724 100 uM final [A]
4,Reagent,3 uL,BD membrane potential dye
6,Compound,23 nL,Final concentration was 0.7nM to 22.9uM
8,Detector,EX 535 / EM 590 [B],Envision
Footnotes: [A] The stock 2 mM RO 20-1724 PDE inhibitor was made in 10 % DMSO. Parental cell line received 10 uM forskolin + 100 uM RO. [B] Envsion settings: Bottom Excitation 535/20 nm top emission 590/20, gain of 150 and 5 flashes per well.
Keywords: PDE, PDE-IV, cytotoxicity, flourescence, MLSMR, MLSCN, NIH Roadmap, qHTS, NCGC
A general note: In qHTS, concentration-response curves come from the screen itself.
As a reminder, the AC50 is the midpoint of the concentration-response curve, whichever way the signal moves. `CCCCCCCC/C=C\CCCCCCCC(=O)NCCc1ccc(O)c(O)c1`: the AC50 was 3.98 µM [rising, partial curve, poor fit].
Next, `C[C@@H](C(=O)Nc1ccc2ccccc2c1)[C@@H]1C[C@@]1(C)[C@@H](NC(=O)c1ccccc1)c1ccccc1`: 0.631 µM [rising, single point]; `CC(C)C[C@@H](NC(=O)OCC1c2ccccc2-c2ccccc21)C(=O)O`: 15.8 µM [rising, single point]; `COc1ccccc1-c1cncnc1NCc1cccs1`: 15.8 µM [rising, single point].
With `CC(C)(C)[C@@]1(O)CCN2C[C@@H]3c4ccccc4CCc4cccc(c43)[C@@H]2C1`, the AC50 is 5.01 µM [rising, partial curve, poor fit].
Then `O=C1[C@@H]2C=CC=CC2=NC(=S)N1CCN1CCC(=C(c2ccc(F)cc2)c2ccc(F)cc2)CC1`, with 15.8 µM [rising, partial curve]; and `O=C(c1cccc(F)c1)N1CCC2(CC1)CCN(c1ccccn1)CC2`, with 15.8 µM [rising, single point]; and `COc1ccccc1-c1ccc2ncnc(N(C)Cc3ccco3)c2c1`, with 12.6 µM [rising, single point].
Next, `COC(=O)Nc1nc2ccc(C(=O)c3cccs3)cc2[nH]1`: 3.16 µM [rising, partial curve, poor fit]; `CC(C)COC[C@H](CN(Cc1ccccc1)c1ccccc1)N1CCCC1`: 5.01 µM [rising, partial curve].
Next, `CN(Cc1ccco1)c1nc(-c2cccc(C#N)c2)nc2ccccc12`: 10 µM [rising, partial curve]; `Cc1c(Cl)cccc1Nc1ccccc1C(=O)O`: 7.94 µM [rising, partial curve]; `CCCC[C@@H]1C[C@H]1C(NC(=O)c1ccco1)c1ccccc1C(F)(F)F` (stereo not given in full): 7.94 µM [rising, partial curve].
Turning to `COC(=O)[C@@]1(Cc2ccc(OC)cc2)[C@H]2c3cc(C(=O)N4CCCC4)n(Cc4ccc(Cl)c(C(F)(F)F)c4)c3C[C@H]2CN1C(=O)c1ccccc1`, the AC50 is 12.6 µM [rising, single point].
In the case of `FC(F)(F)c1cc(CO[C@@H]2CCCN[C@H]2c2ccccc2)cc(C(F)(F)F)c1`, the AC50 is 15.8 µM [rising, partial curve].
Next, `O=C(Cc1ccc(Cl)c(Cl)c1)OCCN1CCCC1`: 6.31 µM [rising, partial curve, poor fit].
Then `C[C@@H](C(=O)N[C@@H](CO)Cc1ccccc1)[C@H]1C[C@]1(C)[C@H](NC(=O)OCc1ccccc1)c1ccccc1`, with 10 µM [rising, single point]; and `CSc1ccc2c(c1)[C@H](N1CCN(C)CC1)Cc1ccccc1S2`, with 15.8 µM [rising, single point].
For `COC(=O)C1(Cc2ccccc2)C2c3cc(C(=O)N4CCCC4)n(Cc4ccc(OC(F)(F)F)cc4)c3CC2CN1C(=O)c1ccccc1` (stereo not given), the AC50 was 0.251 µM [rising, full curve].
As for `Nc1nc2c(c(=O)[nH]1)N(C=O)[C@H](CNc1ccc(C(=O)N[C@@H](CCC(=O)O)C(=O)O)cc1)CN2`, the AC50 is 7.94 µM [rising, partial curve, poor fit].
Regarding `N#Cc1ccc(CN2CCC3(CC2)CCN(C(=O)c2ccco2)CC3)cc1`, the AC50 is 0.398 µM [rising, single point].
For the compound `COc1ccccc1-c1ccc2ncnc(NCCN3CCOCC3)c2c1`, the AC50 is 2.51 µM [rising, single point].
Next, `Cc1noc(C)c1C(=O)N1CCC2(CCCN(Cc3nccs3)C2)CC1`: 3.98 µM [rising, single point]; `CC(C)(CO)Cc1cc(C(C)(C)C)c(O)c(C(C)(C)C)c1`: 12.6 µM [rising, partial curve].
As to `COc1cccc(-c2ccc3ncnc(NCc4cccnc4)c3c2)c1`, the AC50 was 12.6 µM [rising, single point].
On to `CCC(=O)N[C@@H]1Cc2ccccc2[C@@H](c2ccccc2)C1`, for which the AC50 is 10 µM [rising, partial curve].
Then `CCc1ccccc1OC[C@@H](O)CN[C@H]1CCCc2ccccc21`, with 15.8 µM [rising, partial curve]; and `Cc1cccc(CNc2nc(-c3cccc(NS(C)(=O)=O)c3)nc3ccccc23)c1`, with 12.6 µM [rising, single point]; and `O[C@H](CN1CCN(c2cccc(Cl)c2)CC1)C(c1ccccc1)c1ccccc1`, with 15.8 µM [rising, partial curve].
Consider `COc1cccc(-c2nc(NCc3ccccc3)c3ccccc3n2)c1`, for which the AC50 was 12.6 µM [rising, single point].
Consider `CC(C)=CCC/C(C)=C/COc1c2ccoc2cc2oc(=O)ccc12`, for which the AC50 is 15.8 µM [rising, partial curve].
Next, `Cc1cc(C(=O)N[C@@H](c2ccccc2)[C@]2(C)C[C@H]2[C@@H](C)C(=O)Nc2ccc3ccccc3c2)no1`: 6.31 µM [rising, partial curve, poor fit]; `COc1cccc(OC)c1OCCNC[C@@H]1COc2ccccc2O1`: 15.8 µM [rising, partial curve, poor fit] and 12.6 µM [rising, partial curve]; `CNc1nc(-c2ccccc2CN(C)C)nc2ccccc12`: 12.6 µM [rising, single point].
Next, `O=C(c1ccc(F)cc1)C1CCN(CCn2c(=S)[nH]c3ccccc3c2=O)CC1`: 20 µM [rising, single point]; `COc1ccc(CNc2ncnc3ccc(-c4cccc(NS(C)(=O)=O)c4)cc23)c(OC)c1`: 10 µM [rising, partial curve]; `COC(=O)N1CCC2(CCN(C(=O)Nc3ccc(OC)cc3)CC2)CC1`: 15.8 µM [rising, single point].
Then `O=C1C(=O)N(Cc2ccc(Cl)c(Cl)c2)c2ccccc21`, with 25.1 µM [rising, single point].
Take `COc1ccccc1-c1nc(NCc2ccccc2)c2ccccc2n1`: the AC50 is 12.6 µM [rising, partial curve].
`O=C(c1ccco1)N1CCC2(CCCN(c3cccc(-c4ccccc4)c3)C2)CC1`: the AC50 was 10 µM [rising, single point].
